Results deposited as PubChem BioAssay AID743454 (Peter MacCallum Cancer Centre, 2014)

Purpose: 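Search for knock-downs that restore vorinostat killing in resistant colon cancer cells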 (primary screen)
Cell system: human HCT116-VR colon cancer cells, selected for vorinostat resistance
Reagents: siRNA pool against human genes, 40 nM siRNA pool
Time to read-out: vorinostat for 24 h, read-out about 72 h after transfection
Challenge: vorinostat at 2.5 µM final
Read-out: 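Cell viability by CellTiter-Fluor and caspase 3/7 activity by luminescence, each scaled to mock wells per plate, duplicates averaged, then robust z-scored over all plates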
Direction: viability robust z-score: higher = more viable cells than screen typical; caspase robust z-score: higher = more caspase 3/7 activity than screen typical
Active means: 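a knock-down is a hit when classed RV1 or RV2 for lowered viability, or CA1 or CA2 for caspase activation; those lethal without drug were dropped; hits were retested singly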
The deposit covers about 18,000 reagents; below is a random part of them. Over the whole deposit, 450 (2.5%) got an active call. 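Single biological run; no consistent viability z cut-off exists, so the class columns, not z-scores, define the calls.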 Entries without a mark were called inactive. Reagent sequences are not shown.

After knock-down of EMILIN3 the results were viability hit class no change; caspase hit class no change; viability robust z-score 0.74; caspase robust z-score -0.61. ZCCHC12 gave viability hit class no change; caspase hit class no change; viability robust z-score 0.4; caspase robust z-score -0.26. Against ERVFRD-1, the values are viability hit class no change; caspase hit class no change; viability robust z-score -0.4; caspase robust z-score -0.84. DERL2 showed viability hit class no change; caspase hit class no change; viability robust z-score -1.19; caspase robust z-score -0.37. With knock-down of ZNF254, the record shows viability hit class no change; caspase hit class no change; viability robust z-score 1.64; caspase robust z-score -1.08. STT3A gave viability hit class no change; caspase hit class no change; viability robust z-score 0.18; caspase robust z-score -0.73.

For POFUT1, the values are viability hit class no change; caspase hit class no change; viability robust z-score -1.12; caspase robust z-score 1.8. For SS18L1, the values are viability hit class no change; caspase hit class no change; viability robust z-score 0.13; caspase robust z-score 1.47. For GID4, the entry reads viability hit class no change; caspase hit class no change; viability robust z-score -0.4; caspase robust z-score 1.78. Against H1-0, the values are viability hit class no change; caspase hit class no change; viability robust z-score 0.02; caspase robust z-score -0.08. PRAMEF1 gave viability hit class no change; caspase hit class no change; viability robust z-score -0.07; caspase robust z-score 0.6. For PLB1, the entry reads viability hit class no change; caspase hit class no change; viability robust z-score -0.94; caspase robust z-score -1.02.

Knock-down of ASPN gave: viability hit class no change; caspase hit class no change; viability robust z-score 0.84; caspase robust z-score -0.34. With knock-down of MST1R, the record shows viability hit class no change; caspase hit class no change; viability robust z-score -1.92; caspase robust z-score -0.75. Against SSBP3 the deposit lists viability hit class no change; caspase hit class no change; viability robust z-score -0.92; caspase robust z-score -1.21. SERPINB9 scored viability hit class no change; caspase hit class no change; viability robust z-score -0.88; caspase robust z-score 0.08. Silencing of PMS2P5 gave: viability hit class no change; caspase hit class no change; viability robust z-score 0.24; caspase robust z-score 0.27. For RPS15A the deposit lists viability hit class no change; caspase hit class no change; viability robust z-score -4.67; caspase robust z-score -0.66.

With knock-down of CHRNA5 the results were viability hit class no change; caspase hit class no change; viability robust z-score 1.17; caspase robust z-score -0.06. After knock-down of PDCD4, the record shows viability hit class no change; caspase hit class no change; viability robust z-score -1.48; caspase robust z-score 0.76. Silencing of RALYL came out at: viability hit class no change; caspase hit class no change; viability robust z-score 1.23; caspase robust z-score 0.27.

Targets listed so far whose gene name starts with R or r (2):
RPS15A — viability hit class: no change; caspase hit class: no change; viability robust z-score: -4.67; caspase robust z-score: -0.66
RALYL — viability hit class: no change; caspase hit class: no change; viability robust z-score: 1.23; caspase robust z-score: 0.27
